In paper PMC6746865, “Identification of telomerase RNAs in species of the Yarrowia clade provides insights into the co-evolution of telomerase, telomeric repeats and telomere-binding proteins”:
Construct, isoform or probe ends are uncertain for at least one entry. The comparison behind a weaker result is the experiment's own reference, which may not be listed here. Tags and fusion partners may be left off the protein sequences shown. At least one verdict was read from the data and is not stated in words by the source.

Molecular target: T1, Tay1p (YlTay1p) (Yarrowia lipolytica) (UniProt Q6C9I6)
T1 sequence (looked up, limits assumed): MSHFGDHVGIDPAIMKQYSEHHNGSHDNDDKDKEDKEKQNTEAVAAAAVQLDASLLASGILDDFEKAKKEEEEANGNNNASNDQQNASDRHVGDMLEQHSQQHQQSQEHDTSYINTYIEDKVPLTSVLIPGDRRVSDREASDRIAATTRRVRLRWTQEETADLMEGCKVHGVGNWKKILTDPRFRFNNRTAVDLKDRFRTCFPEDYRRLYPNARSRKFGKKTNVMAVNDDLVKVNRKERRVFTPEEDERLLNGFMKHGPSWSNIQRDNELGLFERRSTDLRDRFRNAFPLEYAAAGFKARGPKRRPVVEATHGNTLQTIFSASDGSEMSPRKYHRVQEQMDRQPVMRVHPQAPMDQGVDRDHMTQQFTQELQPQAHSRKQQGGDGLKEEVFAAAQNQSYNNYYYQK
Experiment: EMSA
Conditions: 20 mM HEPES-NaOH pH 7.3, 100 mM NaCl, 16 nM dsDNA probe (3-fold molar excess of unlabelled C strand used in annealing), 10 min at room temperature, recombinant protein, label: 5'-32P on G strand

Sequence | binding result (affinity comparable to N1) | binding result (slightly decreased affinity vs N1)
TTAGCCAGGGTTAGCCAGGG (double strand) [Y. phangngensis telomeric probe CphaTEL (2 repeats)] | binds | 
TTAGCGAGGGTTAGCGAGGG (double strand) [Y. bubula telomeric probe YbubTEL (2 repeats)] | binds | 
TTAGGCAGGGTTAGGCAGGG (double strand) [Y. alimentaria telomeric probe CaliTEL (2 repeats)] | binds | 
TTATACAGGGTTATACAGGG (double strand) [Y. yakushimensis telomeric probe YyakTEL (2 repeats)] | binds | 
TTGACGAGAGTTGACGAGAG (double strand) [C. hispaniensis telomeric probe ChisTEL (2 repeats)] |  | binds more weakly
